Reference: the supplement of paper PMC12067093, “Discovery and optimisation of a covalent ligand for TRIM25 and its application to targeted protein ubiquitination” (Chemical Science, 2025)
The other results are listed elsewhere or left out.

Amino acid sequences for entries named in this document (tags omitted). A change or cut given only in a name is not applied to a line headed by its entry.
UniProt O00186: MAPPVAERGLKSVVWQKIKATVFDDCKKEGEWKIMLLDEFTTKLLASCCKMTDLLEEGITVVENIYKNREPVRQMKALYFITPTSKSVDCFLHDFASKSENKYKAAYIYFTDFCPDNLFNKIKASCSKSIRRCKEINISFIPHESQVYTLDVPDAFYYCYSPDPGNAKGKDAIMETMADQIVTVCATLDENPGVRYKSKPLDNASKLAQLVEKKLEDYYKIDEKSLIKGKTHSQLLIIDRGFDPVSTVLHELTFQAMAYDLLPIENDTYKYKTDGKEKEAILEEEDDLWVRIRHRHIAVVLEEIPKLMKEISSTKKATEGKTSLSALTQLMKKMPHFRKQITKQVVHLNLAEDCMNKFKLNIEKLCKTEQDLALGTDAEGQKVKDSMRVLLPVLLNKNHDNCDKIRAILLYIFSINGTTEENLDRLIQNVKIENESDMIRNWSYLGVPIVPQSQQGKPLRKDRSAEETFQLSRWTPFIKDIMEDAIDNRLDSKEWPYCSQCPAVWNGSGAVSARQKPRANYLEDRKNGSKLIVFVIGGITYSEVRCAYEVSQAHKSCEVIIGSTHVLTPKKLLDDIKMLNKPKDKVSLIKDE
UniProt Q5T5C0: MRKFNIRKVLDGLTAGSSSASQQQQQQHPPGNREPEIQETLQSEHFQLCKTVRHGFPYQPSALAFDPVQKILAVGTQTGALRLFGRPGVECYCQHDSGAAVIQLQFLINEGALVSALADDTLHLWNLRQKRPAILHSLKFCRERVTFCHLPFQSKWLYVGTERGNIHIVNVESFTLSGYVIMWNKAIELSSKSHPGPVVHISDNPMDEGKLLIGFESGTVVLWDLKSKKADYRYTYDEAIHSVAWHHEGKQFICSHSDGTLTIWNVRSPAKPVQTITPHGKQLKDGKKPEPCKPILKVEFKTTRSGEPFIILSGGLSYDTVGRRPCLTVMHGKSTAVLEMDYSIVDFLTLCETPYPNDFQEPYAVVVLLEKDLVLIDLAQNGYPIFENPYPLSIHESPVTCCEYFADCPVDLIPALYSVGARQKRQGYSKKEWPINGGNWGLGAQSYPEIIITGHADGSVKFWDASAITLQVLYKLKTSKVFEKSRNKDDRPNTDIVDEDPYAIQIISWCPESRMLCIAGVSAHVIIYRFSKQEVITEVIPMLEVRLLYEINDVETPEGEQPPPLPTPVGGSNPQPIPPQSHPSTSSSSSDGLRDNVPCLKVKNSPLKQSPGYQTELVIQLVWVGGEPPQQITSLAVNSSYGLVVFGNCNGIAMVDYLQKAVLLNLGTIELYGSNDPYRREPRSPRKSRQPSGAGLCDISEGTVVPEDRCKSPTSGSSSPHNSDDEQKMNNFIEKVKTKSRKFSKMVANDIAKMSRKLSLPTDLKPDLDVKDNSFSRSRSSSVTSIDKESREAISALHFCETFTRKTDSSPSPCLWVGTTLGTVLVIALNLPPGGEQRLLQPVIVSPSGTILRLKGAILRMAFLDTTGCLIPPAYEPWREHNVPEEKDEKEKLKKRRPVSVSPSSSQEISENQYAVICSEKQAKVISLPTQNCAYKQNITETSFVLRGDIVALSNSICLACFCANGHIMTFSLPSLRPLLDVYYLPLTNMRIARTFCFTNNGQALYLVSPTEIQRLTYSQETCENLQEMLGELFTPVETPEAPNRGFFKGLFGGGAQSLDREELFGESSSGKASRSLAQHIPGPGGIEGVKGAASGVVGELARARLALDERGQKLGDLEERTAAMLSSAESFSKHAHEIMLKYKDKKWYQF
UniProt Q9UNE7: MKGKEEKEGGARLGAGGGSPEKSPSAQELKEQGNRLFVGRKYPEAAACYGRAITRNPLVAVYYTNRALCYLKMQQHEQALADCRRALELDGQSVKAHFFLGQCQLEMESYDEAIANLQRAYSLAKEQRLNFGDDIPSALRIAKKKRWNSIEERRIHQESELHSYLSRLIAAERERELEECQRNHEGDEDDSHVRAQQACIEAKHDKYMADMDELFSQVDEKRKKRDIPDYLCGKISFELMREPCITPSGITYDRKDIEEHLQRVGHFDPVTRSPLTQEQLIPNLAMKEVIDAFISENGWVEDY
UniProt Q15022: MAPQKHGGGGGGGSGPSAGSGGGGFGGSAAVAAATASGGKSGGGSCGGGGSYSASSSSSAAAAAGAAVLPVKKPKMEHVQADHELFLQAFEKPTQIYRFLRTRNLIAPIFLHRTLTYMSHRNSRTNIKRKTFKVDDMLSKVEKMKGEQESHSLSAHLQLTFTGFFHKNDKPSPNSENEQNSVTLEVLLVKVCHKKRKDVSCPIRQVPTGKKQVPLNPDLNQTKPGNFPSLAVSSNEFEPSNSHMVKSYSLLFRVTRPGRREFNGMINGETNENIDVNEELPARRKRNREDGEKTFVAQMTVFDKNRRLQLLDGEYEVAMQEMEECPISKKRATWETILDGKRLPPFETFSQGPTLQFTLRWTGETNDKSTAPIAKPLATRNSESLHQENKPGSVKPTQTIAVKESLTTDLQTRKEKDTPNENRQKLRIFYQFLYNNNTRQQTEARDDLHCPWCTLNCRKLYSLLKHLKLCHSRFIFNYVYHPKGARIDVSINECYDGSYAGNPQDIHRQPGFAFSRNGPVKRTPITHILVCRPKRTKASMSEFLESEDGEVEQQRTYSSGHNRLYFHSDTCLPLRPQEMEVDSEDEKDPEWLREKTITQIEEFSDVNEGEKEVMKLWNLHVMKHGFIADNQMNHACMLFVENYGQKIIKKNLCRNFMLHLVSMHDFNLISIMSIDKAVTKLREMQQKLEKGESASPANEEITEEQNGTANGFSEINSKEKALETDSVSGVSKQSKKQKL
UniProt Q15468: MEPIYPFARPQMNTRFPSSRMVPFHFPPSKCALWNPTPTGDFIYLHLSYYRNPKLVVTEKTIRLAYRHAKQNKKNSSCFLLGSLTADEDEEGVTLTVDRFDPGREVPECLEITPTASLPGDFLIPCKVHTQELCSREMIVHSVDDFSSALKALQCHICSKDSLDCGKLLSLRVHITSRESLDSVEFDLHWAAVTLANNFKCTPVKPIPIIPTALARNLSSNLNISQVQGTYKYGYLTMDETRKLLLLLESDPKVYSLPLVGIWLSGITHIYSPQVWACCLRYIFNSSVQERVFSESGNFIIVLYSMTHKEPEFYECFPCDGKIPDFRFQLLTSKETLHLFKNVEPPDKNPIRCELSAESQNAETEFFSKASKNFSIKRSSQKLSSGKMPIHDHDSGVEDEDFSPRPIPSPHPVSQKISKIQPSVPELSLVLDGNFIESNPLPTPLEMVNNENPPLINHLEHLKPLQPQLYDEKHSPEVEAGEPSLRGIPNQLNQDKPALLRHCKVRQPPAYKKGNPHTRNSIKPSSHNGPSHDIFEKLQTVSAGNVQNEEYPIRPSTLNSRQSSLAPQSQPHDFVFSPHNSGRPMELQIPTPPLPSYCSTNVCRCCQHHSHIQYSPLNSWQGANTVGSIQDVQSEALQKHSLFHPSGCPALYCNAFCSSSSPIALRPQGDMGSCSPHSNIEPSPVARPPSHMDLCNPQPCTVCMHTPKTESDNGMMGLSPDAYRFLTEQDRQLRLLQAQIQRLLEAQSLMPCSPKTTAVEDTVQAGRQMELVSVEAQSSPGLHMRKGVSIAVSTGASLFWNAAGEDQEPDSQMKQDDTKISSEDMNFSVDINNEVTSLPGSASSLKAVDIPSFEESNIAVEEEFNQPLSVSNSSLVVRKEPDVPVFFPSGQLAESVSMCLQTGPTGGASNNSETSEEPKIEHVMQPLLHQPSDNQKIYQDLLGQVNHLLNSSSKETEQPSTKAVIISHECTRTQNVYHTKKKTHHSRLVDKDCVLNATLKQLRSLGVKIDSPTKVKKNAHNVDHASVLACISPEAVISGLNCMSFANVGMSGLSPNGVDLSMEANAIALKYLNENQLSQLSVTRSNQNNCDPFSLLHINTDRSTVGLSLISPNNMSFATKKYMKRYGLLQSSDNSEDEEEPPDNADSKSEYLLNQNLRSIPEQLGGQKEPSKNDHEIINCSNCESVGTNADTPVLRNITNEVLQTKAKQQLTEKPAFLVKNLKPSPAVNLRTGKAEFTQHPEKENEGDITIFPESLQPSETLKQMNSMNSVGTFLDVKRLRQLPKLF
UniProt Q9Y5B9, whole entry, looked up: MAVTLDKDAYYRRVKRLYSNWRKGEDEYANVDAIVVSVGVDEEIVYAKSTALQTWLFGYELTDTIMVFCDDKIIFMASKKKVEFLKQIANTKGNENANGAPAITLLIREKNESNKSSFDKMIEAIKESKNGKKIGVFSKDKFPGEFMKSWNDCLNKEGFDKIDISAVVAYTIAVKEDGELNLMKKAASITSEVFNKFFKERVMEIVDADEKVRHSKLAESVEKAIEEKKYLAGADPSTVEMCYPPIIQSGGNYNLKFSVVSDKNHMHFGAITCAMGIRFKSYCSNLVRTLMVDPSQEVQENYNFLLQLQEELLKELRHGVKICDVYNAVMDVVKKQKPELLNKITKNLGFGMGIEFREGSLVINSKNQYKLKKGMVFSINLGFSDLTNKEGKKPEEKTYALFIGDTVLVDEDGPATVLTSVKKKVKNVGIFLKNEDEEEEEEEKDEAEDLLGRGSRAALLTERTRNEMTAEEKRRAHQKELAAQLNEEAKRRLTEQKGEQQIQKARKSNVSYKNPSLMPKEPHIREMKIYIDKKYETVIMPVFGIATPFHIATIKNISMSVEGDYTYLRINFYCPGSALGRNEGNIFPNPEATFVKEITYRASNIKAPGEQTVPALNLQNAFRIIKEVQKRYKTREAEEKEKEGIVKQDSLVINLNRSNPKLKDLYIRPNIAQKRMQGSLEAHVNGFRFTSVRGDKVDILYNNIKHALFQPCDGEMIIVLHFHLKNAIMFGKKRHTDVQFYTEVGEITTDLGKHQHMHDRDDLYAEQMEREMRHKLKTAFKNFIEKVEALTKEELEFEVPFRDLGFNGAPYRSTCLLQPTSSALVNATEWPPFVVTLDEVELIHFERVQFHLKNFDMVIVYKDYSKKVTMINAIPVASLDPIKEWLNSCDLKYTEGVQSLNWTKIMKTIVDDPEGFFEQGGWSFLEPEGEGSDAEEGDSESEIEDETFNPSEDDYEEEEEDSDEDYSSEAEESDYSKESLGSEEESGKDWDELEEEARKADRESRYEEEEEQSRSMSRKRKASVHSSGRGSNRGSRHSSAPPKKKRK
UniProt Q9UH65: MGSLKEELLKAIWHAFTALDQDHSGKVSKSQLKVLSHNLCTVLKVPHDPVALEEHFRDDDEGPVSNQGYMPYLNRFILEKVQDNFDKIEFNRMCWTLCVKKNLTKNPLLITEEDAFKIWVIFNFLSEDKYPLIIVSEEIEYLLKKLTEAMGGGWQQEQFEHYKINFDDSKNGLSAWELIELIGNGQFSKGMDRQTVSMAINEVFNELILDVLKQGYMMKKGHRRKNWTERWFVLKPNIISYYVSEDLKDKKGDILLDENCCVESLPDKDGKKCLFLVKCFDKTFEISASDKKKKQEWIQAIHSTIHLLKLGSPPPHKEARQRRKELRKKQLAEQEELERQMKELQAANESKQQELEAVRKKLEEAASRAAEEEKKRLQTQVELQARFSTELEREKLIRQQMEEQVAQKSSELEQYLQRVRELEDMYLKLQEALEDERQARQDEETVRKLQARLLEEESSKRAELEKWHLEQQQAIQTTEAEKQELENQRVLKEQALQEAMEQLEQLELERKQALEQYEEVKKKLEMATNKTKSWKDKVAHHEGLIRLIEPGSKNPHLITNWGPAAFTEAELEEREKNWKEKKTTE
UniProt Q9Y5Y6: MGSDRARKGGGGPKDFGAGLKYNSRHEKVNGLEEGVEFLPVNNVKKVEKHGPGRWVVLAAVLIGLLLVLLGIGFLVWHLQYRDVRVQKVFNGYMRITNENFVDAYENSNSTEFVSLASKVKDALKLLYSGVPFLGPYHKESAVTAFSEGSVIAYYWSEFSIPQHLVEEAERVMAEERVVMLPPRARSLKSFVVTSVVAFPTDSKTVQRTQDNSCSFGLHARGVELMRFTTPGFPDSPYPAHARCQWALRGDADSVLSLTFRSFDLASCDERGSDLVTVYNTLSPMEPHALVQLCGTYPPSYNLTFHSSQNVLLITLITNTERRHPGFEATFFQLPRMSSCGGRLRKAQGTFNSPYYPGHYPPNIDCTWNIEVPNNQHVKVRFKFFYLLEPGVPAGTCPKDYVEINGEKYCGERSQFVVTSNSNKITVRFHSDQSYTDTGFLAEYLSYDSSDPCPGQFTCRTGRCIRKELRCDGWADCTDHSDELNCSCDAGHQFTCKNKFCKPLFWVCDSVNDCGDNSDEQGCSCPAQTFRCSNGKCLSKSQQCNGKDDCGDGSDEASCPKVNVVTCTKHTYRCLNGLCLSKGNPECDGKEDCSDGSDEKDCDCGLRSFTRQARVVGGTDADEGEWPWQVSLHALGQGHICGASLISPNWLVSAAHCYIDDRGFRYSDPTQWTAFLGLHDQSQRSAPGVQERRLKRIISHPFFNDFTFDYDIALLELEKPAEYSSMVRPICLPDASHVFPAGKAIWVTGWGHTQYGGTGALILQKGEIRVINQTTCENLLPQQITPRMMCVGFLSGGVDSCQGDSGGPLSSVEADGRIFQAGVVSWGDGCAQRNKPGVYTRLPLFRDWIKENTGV

These targets were tested with Cc1cc(ccc1-c1ccccc1)C(=O)N1CCCN(CC1)C(=O)CCl [compound 10] (assay: probe-labelled cysteine peptide fold change vs DMSO (competition) (log2 fold change); higher = less target engagement (more negative = stronger competition)). Conditions: 10 µM; THP-1; incubation time: 4 h.
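Further: competitive profiling in live THP-1 cells: cysteine peptides tagged with an iodoacetamide desthiobiotin (IA-DTB) probe, intensity after compound treatment relative to DMSO-treated cells.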

| Target | probe-labelled cysteine peptide fold change |
| --- | --- |
| STXBP3_O00186_26_ATVFDDCK (UniProt O00186) | -0.195 |
| STAT1_P42224_492_NLSFFLTPPCAR (UniProt P42224) | 0.119 |
| STRN4_Q9NRL3_17_AAAAVAAAASSCRPLGSGAGPGPTGAAPVSAPAPGPGPAGK (UniProt Q9NRL3) | -0.14 |
| STXBP5_Q5T5C0_697_SRQPSGAGLCDISEGTVVPEDR (UniProt Q5T5C0) | -0.389 |
| STRIP1_Q5VSL9_798_AHSNPDFLPVDNCLQSVLGQR (UniProt Q5VSL9) | -0.0541 |
| SUCLA2_Q9P2R7_430_ILACDDLDEAAR (UniProt Q9P2R7) | -0.109 |
| STUB1_Q9UNE7_83_MQQHEQALADCRR (UniProt Q9UNE7) | 0.121 |
| SUZ12_Q15022_325_LQLLDGEYEVAMQEMEECPISK (UniProt Q15022) | -0.129 |
| STARD7_Q9NQZ5_362_KNEGSCGPAR (UniProt Q9NQZ5) | -0.295 |
| STIL_Q15468_126_EVPECLEITPTASLPGDFLIPCK (UniProt Q15468) | 0.316 |
| STXBP3_O00186_557_SCEVIIGSTHVLTPK (UniProt O00186) | 0.0882 |
| STAT6_P42226_452_MCETLNLK (UniProt P42226) | 0.0597 |
| SUPT16H_Q9Y5B9_153_SWNDCLNK (UniProt Q9Y5B9) | -0.0906 |
| SUPT6H_Q7KZ85_1021_TQLVTMCHMGPK (UniProt Q7KZ85) | -0.0816 |
| STT3B_Q8TCJ2_715_AGSPTLLNCLMYK (UniProt Q8TCJ2) | 0.0595 |
| STIL_Q15468_353_CELSAESQNAETEFFSK (UniProt Q15468) | -0.0727 |
| SVIL_O95425_76_YCTETSGVHGDSPYGSGTMDTHSLESK (UniProt O95425) | 0.144 |
| STARD3_Q14849_317_TVTACQILQR (UniProt Q14849) | 0.0513 |

| Target | probe-labelled cysteine peptide fold change |
| --- | --- |
| SUZ12_Q15022_531_RTPITHILVCRPK (UniProt Q15022) | -0.0893 |
| STARD5_Q9NSY2_67_GEGIVYGTLEEVWDCVK (UniProt Q9NSY2) | 0.0356 |
| SWAP70_Q9UH65_260_GDILLDENCCVESLPDK (UniProt Q9UH65) | 0.124 |
| ST14_Q9Y5Y6_602+604_DCDCGLR (UniProt Q9Y5Y6) | -0.217 |
| STXBP2_Q15833_158_EIHLAFLPYEAQVFSLDAPHSTYNLYCPFRAEER (UniProt Q15833) | -0.0353 |
| SYMPK_Q92797_1068_CPELREPLLAHVR (UniProt Q92797) | 0.0226 |
| SUPV3L1_Q8IYB8_372_RLTPISVLDHALESLDNLRPGDCIVCFSK (UniProt Q8IYB8) | 0.0877 |
| SUCLG1_P53597_60_IICQGFTGK (UniProt P53597) | -0.0662 |
| SUPT4H1_P63272_16+19_ACLLCSLVK (UniProt P63272) | 0.0559 |
| STK17B_O94768_372_FRFDDSLPNPHELVSDLLC (UniProt O94768) | -0.0801 |
| SUV39H1_O43463_30_LSCPALGISK (UniProt O43463) | -0.0675 |
| SURF2_Q15527_29+38_CILTGHELPCR (UniProt Q15527) | 0.0902 |
| STUB1_Q9UNE7_180_ERELEECQR (UniProt Q9UNE7) | 0.0592 |
| ST3GAL1_Q11201_59_HRPCTCTHCIGQR (UniProt Q11201) | -0.119 |
| SRSF7_Q16629_106+109_CYECGEK (UniProt Q16629) | 0.091 |
| SYK_P43405_597_MGCPAGCPR (UniProt P43405) | 0.0815 |
| ST14_Q9Y5Y6_214_TQDNSCSFGLHAR (UniProt Q9Y5Y6) | -0.00476 |
